PubChem BioAssay AID1259405 – NCATS | 2018
Assay: 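Silenced genes that increase secreted GFP made by CHO cells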 (primary screen). System: Chinese hamster CHO-K1 ovary cells with stable secreted eGFP expression. Reagent: single siRNA against mouse genes, 0.8 pmol siRNA per well (2 µl of 400 nM stock). Timing: 3 days. Detection: 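Per-well intracellular GFP measured by laser scanning cytometry, plus viability from ATP luminescence, each relative to plate median of non-targeting control wells, in %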. Direction: GFP, % of control: higher = more GFP per well, higher productivity; viability (ATP), % of control: higher = more viable cells (more ATP). Rule for the call: 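Called active when intracellular GFP, relative to negative control, is at or above 120%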.
The deposit covers about 50,000 reagents; this is a random part of them. In the full data, about 4,000 (8%) are marked active. 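Mouse siRNA library applied to hamster cells; one well for each siRNA.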 Reagents against one gene are numbered here.

After knock-down of Syngr4 (synaptogyrin 4) #1 the results were GFP, % of control 78; viability (ATP), % of control 52.6; inactive.
For Syngr4 (synaptogyrin 4) #2 the deposit lists GFP, % of control 107; viability (ATP), % of control 90.3; inactive.
Depletion of Syngr4 (synaptogyrin 4) #3 resulted in: GFP, % of control 62; viability (ATP), % of control 66.5; inactive.
Rpl12 (ribosomal protein L12) #1 gave GFP, % of control 55.7; viability (ATP), % of control 22.7; inactive.
Rpl12 (ribosomal protein L12) #2 gave GFP, % of control 57.2; viability (ATP), % of control 22.9; inactive.
Against Rpl12 (ribosomal protein L12) #3, the values are GFP, % of control 150; viability (ATP), % of control 69; active.
After knock-down of Fat4 (FAT atypical cadherin 4) #1, the record shows GFP, % of control 70.5; viability (ATP), % of control 92.8; inactive.
Against Fat4 (FAT atypical cadherin 4) #2, the entry reads GFP, % of control 63; viability (ATP), % of control 51.3; inactive.
After knock-down of Fat4 (FAT atypical cadherin 4) #3, the record shows GFP, % of control 66.5; viability (ATP), % of control 52.4; inactive.

Reprinted from above for reference:
Syngr4 (synaptogyrin 4) #2: GFP, % of control = 107; viability (ATP), % of control = 90.3; call = inactive
Syngr4 (synaptogyrin 4) #3: GFP, % of control = 62; viability (ATP), % of control = 66.5; call = inactive

The list goes on:
Against A130014H13Rik (RIKEN cDNA A130014H13 gene) #1, the entry reads GFP, % of control 76; viability (ATP), % of control 69.6; inactive.
For A130014H13Rik (RIKEN cDNA A130014H13 gene) #2, the values are GFP, % of control 53; viability (ATP), % of control 47.7; inactive.
Knock-down of A130014H13Rik (RIKEN cDNA A130014H13 gene) #3 came out at: GFP, % of control 79.3; viability (ATP), % of control 91.3; inactive.
With knock-down of Zkscan17 (zinc finger with KRAB and SCAN domains 17) #1, the screen gave GFP, % of control 143; viability (ATP), % of control 92; active.
Zkscan17 (zinc finger with KRAB and SCAN domains 17) #2 gave GFP, % of control 82.6; viability (ATP), % of control 96.8; inactive.
Silencing of Zkscan17 (zinc finger with KRAB and SCAN domains 17) #3 came out at: GFP, % of control 73.9; viability (ATP), % of control 110; inactive.
Knock-down of Ppp4r4 (protein phosphatase 4, regulatory subunit 4) #1 resulted in: GFP, % of control 75.5; viability (ATP), % of control 81.3; inactive.
For Ppp4r4 (protein phosphatase 4, regulatory subunit 4) #2, the values are GFP, % of control 52.6; viability (ATP), % of control 83.7; inactive.
Ppp4r4 (protein phosphatase 4, regulatory subunit 4) #3 gave GFP, % of control 127; viability (ATP), % of control 131; active.
